These results are taken from the supplement of paper PMC5949888.

Most values lie at the floor of the assay. Slopes are relative: functional sequences can read slightly below zero.

The test system of the data set is Saccharomyces cerevisiae PS128 hsf1 delta, HSF1(1-493) fusion. Briefly: growth estimate (transactivation domain function in HSF1 fusion, heat-shock survival) (a.u. (slope of normalised read count over time)); higher = stronger growth at 37°C, i.e. more transactivation activity. The conditions noted are these: library: random library.
Turning to ETVGSEHEQS, the growth estimate was less than -0.25.
On to TLCLSVTVSPL, for which the growth estimate is less than -0.25.
Turning to RGGLWRKNARR, the growth estimate was less than -0.25.
To ALSSTQPEAHDFDPTRLIRH belongs less than -0.25; to REKRVQGATLNSSGLGETIR, less than -0.25.
Then LLNSSRLCRE, with less than -0.25; and FYHDSINFRVTEYWF, with less than -0.25.
To FLLNVLPVLVVLPR belongs less than -0.25.
For the substance DWVWRTYHSRLYGDR, the growth estimate is less than -0.25.
To WEATVLRACSGGSCSRQ belongs less than -0.25; to GKPKGGPSSW, less than -0.25; to KFKIWN, less than -0.25.
Regarding YELALVP, the growth estimate is less than -0.25.
Then VVH, with less than -0.25.
To QVPTLTPLGLSIAVDHCWTV belongs less than -0.25; to AINPVPGSNNQPVATLGSRP, less than -0.25; to THDGHRVFVASIRRRRHAPH, less than -0.25.
To IAGSGLLRLN belongs less than -0.25.
On to GRTSRFVYLSVRFCKSRQLD, for which the growth estimate was less than -0.25.
To AYQSCGRLKLYVAARARIIR belongs less than -0.25; to AYDGANRNSWSWCSVL, less than -0.25.
Then LQKVYNGMFVGL, with less than -0.25; and RHLVCFGGIKNANG, with less than -0.25.
To IISWWLYYSGIYYGQGFRSV belongs less than -0.25; to FGWQEKMCRHQHQTRGEVVP, less than -0.25.
As for DLFLLT, the growth estimate is -0.236.
Take VLEGRRELRAVECRVVL: the growth estimate was less than -0.25.
Turning to VLAPGCI, the growth estimate was -0.202.
Then YCRSSSKENALFLYLL, with less than -0.25; and TDNV, with less than -0.25.
To RVQGY belongs less than -0.25; to SVSA, less than -0.25; to HRRIMELECFSHAFTGPNSA, less than -0.25.
Then CSGTGTNWVVSTSWPAGQW, with less than -0.25; and DEGYSGFRTSKCAISTLVQQ, with 0.159; and PSVWPRLGQGGTVGIPTSSG, with less than -0.25.
Take RENL: the growth estimate is less than -0.25.
To FGLIHGRKGPS belongs -0.245; to TLLTPATGRECTSDLNIFVD, less than -0.25.
To GILSRLRAWSSQSIGTGGLI belongs less than -0.25.
Then MAMRSGPIS, with less than -0.25; and SVTMVTTNR, with less than -0.25; and TPKLAYLPAKSRCVNC, with less than -0.25.
For LDIHRRDNPSGSVVRDPKTT, the growth estimate is less than -0.25.
Then LLT, with less than -0.25.
To RLRKEPSEGNPSLD belongs less than -0.25.
As for WRWVPKMFWSLFICSVIQKK, the growth estimate was less than -0.25.
To RSQPGTTQGDRHSAT belongs less than -0.25; to LLCTIIGLAKDSAEAQRLEL, -0.173; to HVGKFAGLEN, less than -0.25.
To LQGHHAGHGGPPMCTPGSAV belongs less than -0.25.
To GLSFRLSSSSNPAGGGFCCE belongs less than -0.25; to FDVRIEVSKYSG, less than -0.25.
Regarding AWRSAEDNGSQLC, the growth estimate is less than -0.25.
To SAGNSCRGMWPVLHLRSLMD belongs less than -0.25; to KICGGKG, -0.229; to RSSTIFNTAFPKTASQPPLG, less than -0.25.
As to CAWAVIKGSIRNVVPHVMVG, the growth estimate was less than -0.25.
Then NRARGERDCQEDYR, with less than -0.25; and MGGSLFFLRCFMVFDPSEVG, with less than -0.25; and FSDTA, with less than -0.25.
To HSVDCKR belongs less than -0.25; to AKIPKRRPLTLILA, less than -0.25; to DRVYHALGVVLESYRKHRVP, less than -0.25.
To TVVARAWVFS belongs -0.245; to KIARVWVGVAKRLEAQHVIW, less than -0.25.
Turning to VNPQKVSITPKVPAGTP, the growth estimate is less than -0.25.
Consider KLPASCCGRLTVELVVF, for which the growth estimate is less than -0.25.
To SIRRPTEMH belongs less than -0.25; to MLSILNGSNVSKQDTTSWVG, less than -0.25.
On to PWCNEHGEMKVLRKKMIKTL, for which the growth estimate is less than -0.25.
Consider FEMVGLVFPPTIDQGSLDSA, for which the growth estimate is -0.243.
Then RITQRNRARKYTTGVLNKVS, with less than -0.25; and EWDSLNVEDMVIASSCRSQR, with less than -0.25; and VLRERNP, with less than -0.25.
Then GSTRIKARWQFVRGYSGGAM, with less than -0.25; and RPLRLCILTERLLRRQVSRK, with -0.228; and WCNASLLTS, with less than -0.25.
Consider AGKASDHDPVQGGAPWVPS, for which the growth estimate is less than -0.25.
Consider YTTAGLN, for which the growth estimate was less than -0.25.
Turning to DPKKCYVSPLMLKRQKTSCH, the growth estimate was less than -0.25.
Then LERFRLEVK, with -0.189; and TATRVTFGEC, with less than -0.25.
In the case of ADIGCKVVFLMAASEEHVFP, the growth estimate is less than -0.25.
To LLVRRVGDTYFKIIG belongs less than -0.25.
In the case of AESCYVTLGSLVPSGAPVSK, the growth estimate is less than -0.25.
To CKPFVGPDPG belongs less than -0.25; to FTGDGGRVRF, less than -0.25; to LKCLEGWSIARLLWSKVGPA, less than -0.25.
To VRFIG belongs less than -0.25.
As for VPIGLRKSRHTAAPWSHFST, the growth estimate was less than -0.25.
For the substance SNGIPQPLEGSGV, the growth estimate is less than -0.25.
To YRQTYCVWESQRMGSLLLYV belongs less than -0.25; to AYPRRPESWQNIFGRTRDLC, less than -0.25.
Then VFRASHR, with less than -0.25; and QYGGTASMKFGVGVRPGGAR, with less than -0.25; and NTFVV, with less than -0.25.
For GEAITQLQVCTQGTVFVGQC, the growth estimate was less than -0.25.
Then SVTSYAGGRGGPRVLAEDGR, with less than -0.25; and PVDGRQGKGSEVHVIDGGSP, with less than -0.25; and AGRCV, with less than -0.25.
Then ALTAR, with less than -0.25; and STLCAHAGGNSTRGAGAISC, with less than -0.25; and GCFHGS, with less than -0.25.
Then GRIG, with less than -0.25; and KYLESSQGLSYTVEVRA, with less than -0.25; and LPKGSPRSLGTADQKAI, with less than -0.25.
For the substance ELAGTSQILIRDSGLKLSAD, the growth estimate is less than -0.25.
For VHTKDRAVGSDRGCERHGDT, the growth estimate is less than -0.25.
To CTYASIRAISHGRPEGILSD belongs less than -0.25; to FTCFIESLRSTVFSESRVCR, less than -0.25.
For the substance RTMIGETLASWT, the growth estimate was less than -0.25.
Then SGNLSSDCGRARKVGRAGKA, with less than -0.25.
To HHSLWSAIWGVQAGAELLFR belongs less than -0.25.
As for GGVSFVKQSTFPLKHCWDVG, the growth estimate was less than -0.25.
